Assay results: publication PMC9456370
No constants are given. Whether binding was seen depends on the method and setting. Binding seen in cells or lysates may run through a third protein. These calls come from enrichment with a bait or labelling near it, and not all partners need be listed. Tags and fused reporters may be left off the sequences shown.

T1: His6-tagged LapD protein (E. coli K-12) (UniProt P0ADW3)
T1 sequence: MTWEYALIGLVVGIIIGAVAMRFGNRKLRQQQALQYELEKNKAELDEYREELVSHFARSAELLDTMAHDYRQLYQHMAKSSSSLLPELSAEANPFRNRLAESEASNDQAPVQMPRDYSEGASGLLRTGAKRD

B1: LapB (protein, UniProt P0AB58 1-389)
chain: MLELLFLLLPVAAAYGWYMGRRSAQQNKQDEANRLSRDYVAGVNFLLSNQQDKAVDLFLDMLKEDTGTVEAHLTLGNLFRSRGEVDRAIRIHQTLMESASLTYEQRLLAIQQLGRDYMAAGLYDRAEDMFNQLTDETDFRIGALQQLLQIYQATSEWQKAIDVAERLVKLGKDKQRVEIAHFYCELALQHMASDDLDRAMTLLKKGAAADKNSARVSIMMGRVFMAKGEYAKAVESLQRVISQDRELVSETLEMLQTCYQQLGKTAEWAEFLQRAVEENTGADAELMLADIIEARDGSEAAQVYITRQLQRHPTMRVFHKLMDYHLNEAEEGRAKESLMVLRDMVGEKVRSKPRYRCQKCGFTAYTLYWHCPSCRAWSTIKPIRGLDGL
B2: WbbJ (enzyme, UniProt P37750 1-196)
chain: MILKLAKRYGLCGFIRLVRDVLLTRVFYRNCRIIRFPCYIRNDGSINFGENFTSGVGLRLDAFGRGVIFFSDNVQVNDYVHIASIESVTIGRDTLIASKVFITDHNHGSFKHSDPMSSPNIPPDMRTLESSAVVIGQRVWLGENVTVLPGTIIGNGVVVGANSVVRGSIPENTVIAGVPAKIIKKYNHETKLWEKA
B3: FabB (enzyme, UniProt P0A953 1-406)
chain: MKRAVITGLGIVSSIGNNQQEVLASLREGRSGITFSQELKDSGMRSHVWGNVKLDTTGLIDRKVVRFMSDASIYAFLSMEQAIADAGLSPEAYQNNPRVGLIAGSGGGSPRFQVFGADAMRGPRGLKAVGPYVVTKAMASGVSACLATPFKIHGVNYSISSACATSAHCIGNAVEQIQLGKQDIVFAGGGEELCWEMACEFDAMGALSTKYNDTPEKASRTYDAHRDGFVIAGGGGMVVVEELEHALARGAHIYAEIVGYGATSDGADMVAPSGEGAVRCMKMAMHGVDTPIDYLNSHGTSTPVGDVKELAAIREVFGDKSPAISATKAMTGHSLGAAGVQEAIYSLLMLEHGFIAPSINIEELDEQAAGLNIVTETTDRELTTVMSNSFGFGGTNATLVMRKLKD
B4: MukE (protein, UniProt P22524 1-234)
chain: MSSTNIEQVMPVKLAQALANPLFPALDSALRSGRHIGLDELDNHAFLMDFQEYLEEFYARYNVELIRAPEGFFYLRPRSTTLIPRSVLSELDMMVGKILCYLYLSPERLANEGIFTQQELYDELLTLADEAKLLKLVNNRSTGSDVDRQKLQEKVRSSLNRLRRLGMVWFMGHDSSKFRITESVFRFGADVRAGDDPREAQRRLIRDGEAMPIENHLQLNDETEENQPDSGEEE
B5: PssA (phosphatidylserine synthase) (enzyme, UniProt P23830 1-451)
chain: MLSKFKRNKHQQHLAQLPKISQSVDDVDFFYAPADFRETLLEKIASAKQRICIVALYLEQDDGGKGILNALYEAKRQRPELDVRVLVDWHRAQRGRIGAAASNTNADWYCRMAQENPGVDVPVYGVPINTREALGVLHFKGFIIDDSVLYSGASLNDVYLHQHDKYRYDRYHLIRNRKMSDIMFEWVTQNIMNGRGVNRLDDVNRPKSPEIKNDIRLFRQELRDAAYHFQGDADNDQLSVTPLVGLGKSSLLNKTIFHLMPCAEQKLTICTPYFNLPAILVRNIIQLLREGKKVEIIVGDKTANDFYIPEDEPFKIIGALPYLYEINLRRFLSRLQYYVNTDQLVVRLWKDDDNTYHLKGMWVDDKWMLITGNNLNPRAWRLDLENAILIHDPQLELAPQREKELELIREHTTIVKHYRDLQSIADYPVKVRKLIRRLRRIRIDRLISRIL
B6: LptC (protein, UniProt P0ADV9 1-191)
chain: MSKARRWVIIVLSLAVLVMIGINMAEKDDTAQVVVNNNDPTYKSEHTDTLVYNPEGALSYRLIAQHVEYYSDQAVSWFTQPVLTTFDKDKIPTWSVKADKAKLTNDRMLYLYGHVEVNALVPDSQLRRITTDNAQINLVTQDVTSEDLVTLYGTTFNSSGLKMRGNLRSKNAELIEKVRTSYEIQNKQTQP
B7: MreC (protein, UniProt P16926 1-367)
chain: MKPIFSRGPSLQIRLILAVLVALGIIIADSRLGTFSQIRTYMDTAVSPFYFVSNAPRELLDGVSQTLASRDQLELENRALRQELLLKNSELLMLGQYKQENARLRELLGSPLRQDEQKMVTQVISTVNDPYSDQVVIDKGSVNGVYEGQPVISDKGVVGQVVAVAKLTSRVLLICDATHALPIQVLRNDIRVIAAGNGCTDDLQLEHLPANTDIRVGDVLVTSGLGGRFPEGYPVAVVSSVKLDTQRAYTVIQARPTAGLQRLRYLLLLWGADRNGANPMTPEEVHRVANERLMQMMPQVLPSPDAMGPKLPEPATGIAQPTPQQPATGNAATAPAAPTQPAANRSPQRATPPQSGAQPPARAPGGQ
B8: MukF (protein, UniProt P60293 1-440)
chain: MSEFSQTVPELVAWARKNDFSISLPVDRLSFLLAVATLNGERLDGEMSEGELVDAFRHVSDAFEQTSETIGVRANNAINDMVRQRLLNRFTSEQAEGNAIYRLTPLGIGITDYYIRQREFSTLRLSMQLSIVAGELKRAADAAEEGGDEFHWHRNVYAPLKYSVAEIFDSIDLTQRLMDEQQQQVKDDIAQLLNKDWRAAISSCELLLSETSGTLRELQDTLEAAGDKLQANLLRIQDATMTHDDLHFVDRLVFDLQSKLDRIISWGQQSIDLWIGYDRHVHKFIRTAIDMDKNRVFAQRLRQSVQTYFDEPWALTYANADRLLDMRDEEMALRDEEVTGELPEDLEYEEFNEIREQLAAIIEEQLAVYKTRQVPLDLGLVVREYLSQYPRARHFDVARIVIDQAVRLGVAQADFTGLPAKWQPINDYGAKVQAHVIDKY
B9: FabH (enzyme, UniProt P0A6R0 1-317)
chain: MYTKIIGTGSYLPEQVRTNADLEKMVDTSDEWIVTRTGIRERHIAAPNETVSTMGFEAATRAIEMAGIEKDQIGLIVVATTSATHAFPSAACQIQSMLGIKGCPAFDVAAACAGFTYALSVADQYVKSGAVKYALVVGSDVLARTCDPTDRGTIIIFGDGAGAAVLAASEEPGIISTHLHADGSYGELLTLPNADRVNPENSIHLTMAGNEVFKVAVTELAHIVDETLAANNLDRSQLDWLVPHQANLRIISATAKKLGMSMDNVVVTLDRHGNTSAASVPCALDEAVRDGRIKPGQLVLLEAFGGGFTWGSALVRF
B10: LptB (protein, UniProt P0A9V1 1-241)
chain: MATLTAKNLAKAYKGRRVVEDVSLTVNSGEIVGLLGPNGAGKTTTFYMVVGIVPRDAGNIIIDDDDISLLPLHARARRGIGYLPQEASIFRRLSVYDNLMAVLQIRDDLSAEQREDRANELMEEFHIEHLRDSMGQSLSGGERRRVEIARALAANPKFILLDEPFAGVDPISVIDIKRIIEHLRDSGLGVLITDHNVRETLAVCERAYIVSQGHLIAHGTPTEILQDEHVKRVYLGEDFRL
B11: FabY (enzyme, UniProt P0ADQ2 1-329)
chain: MSQLPGLSRETRESIAMYHLRVPQTEEELERYYQFRWEMLRKPLHQPKGSERDAWDAMAHHQMVVDEQGNLVAVGRLYINADNEASIRFMAVHPDVQDKGLGTLMAMTLESVARQEGVKRVTCSAREDAVEFFAKLGFVNQGEITTPTTTPIRHFLMIKPVATLDDILHRGDWCAQLQQAWYEHIPLSEKMGVRIQQYTGQKFITTMPETGNQNPHHTLFAGSLFSLATLTGWGLIWLMLRERHLGGTIILADAHIRYSKPISGKPHAVADLGALSGDLDRLARGRKARVQMQVEIFGDETPGAVFEGTYIVLPAKPFGPYEEGGNEEE
B12: AccD (enzyme, UniProt P0A9Q5 1-304)
chain: MSWIERIKSNITPTRKASIPEGVWTKCDSCGQVLYRAELERNLEVCPKCDHHMRMTARNRLHSLLDEGSLVELGSELEPKDVLKFRDSKKYKDRLASAQKETGEKDALVVMKGTLYGMPVVAAAFEFAFMGGSMGSVVGARFVRAVEQALEDNCPLICFSASGGARMQEALMSLMQMAKTSAALAKMQERGLPYISVLTDPTMGGVSASFAMLGDLNIAEPKALIGFAGPRVIEQTVREKLPPGFQRSEFLIEKGAIDMIVRRPEMRLKLASILAKLMNLPAPNPEAPREGVVVPPVPDQEPEA
B13: MukB (protein, UniProt P22523 1-1486)
chain: MIERGKFRSLTLINWNGFFARTFDLDELVTTLSGGNGAGKSTTMAAFVTALIPDLTLLHFRNTTEAGATSGSRDKGLHGKLKAGVCYSMLDTINSRHQRVVVGVRLQQVAGRDRKVDIKPFAIQGLPMSVQPTQLVTETLNERQARVLPLNELKDKLEAMEGVQFKQFNSITDYHSLMFDLGIIARRLRSASDRSKFYRLIEASLYGGISSAITRSLRDYLLPENSGVRKAFQDMEAALRENRMTLEAIRVTQSDRDLFKHLISEATNYVAADYMRHANERRVHLDKALEFRRELHTSRQQLAAEQYKHVDMARELAEHNGAEGDLEADYQAASDHLNLVQTALRQQEKIERYEADLDELQIRLEEQNEVVAEAIERQQENEARAEAAELEVDELKSQLADYQQALDVQQTRAIQYNQAIAALNRAKELCHLPDLTADCAAEWLETFQAKELEATEKMLSLEQKMSMAQTAHSQFEQAYQLVVAINGPLARNEAWDVARELLREGVDQRHLAEQVQPLRMRLSELEQRLREQQEAERLLADFCKRQGKNFDIDELEALHQELEARIASLSDSVSNAREERMALRQEQEQLQSRIQSLMQRAPVWLAAQNSLNQLSEQCGEEFTSSQDVTEYLQQLLEREREAIVERDEVGARKNAVDEEIERLSQPGGSEDQRLNALAERFGGVLLSEIYDDVSLEDAPYFSALYGPSRHAIVVPDLSQVTEHLEGLTDCPEDLYLIEGDPQSFDDSVFSVDELEKAVVVKIADRQWRYSRFPEVPLFGRAARESRIESLHAEREVLSERFATLSFDVQKTQRLHQAFSRFIGSHLAVAFESDPEAEIRQLNSRRVELERALSNHENDNQQQRIQFEQAKEGVTALNRILPRLNLLADDSLADRVDEIRERLDEAQEAARFVQQFGNQLAKLEPIVSVLQSDPEQFEQLKEDYAYSQQMQRDARQQAFALTEVVQRRAHFSYSDSAEMLSGNSDLNEKLRERLEQAEAERTRAREALRGHAAQLSQYNQVLASLKSSYDTKKELLNDLQRELQDIGVRADSGAEERARIRRDELHAQLSNNRSRRNQLEKALTFCEAEMDNLTRKLRKLERDYFEMREQVVTAKAGWCAVMRMVKDNGVERRLHRRELAYLSADDLRSMSDKALGALRLAVADNEHLRDVLRMSEDPKRPERKIQFFVAVYQHLRERIRQDIIRTDDPVEAIEQMEIELSRLTEELTSREQKLAISSRSVANIIRKTIQREQNRIRMLNQGLQNVSFGQVNSVRLNVNVRETHAMLLDVLSEQHEQHQDLFNSNRLTFSEALAKLYQRLNPQIDMGQRTPQTIGEELLDYRNYLEMEVEVNRGSDGWLRAESGALSTGEAIGTGMSILVMVVQSWEDESRRLRGKDISPCRLLFLDEAARLDARSIATLFELCERLQMQLIIAAPENISPEKGTTYKLVRKVFQNTEHVHVVGLRGFAPQLPETLPGTDEAPSQAS

The binders below were run against T1, His6-tagged LapD protein (E. coli K-12) (assay: affinity purification with mass spectrometry; His6-LapD (pCA24N JW5539 in BW25113) from IM fraction solubilized with 2% octyl-β-D-glucoside, on nickel-nitrilotriacetic acid beads, eluted with 250 mM and 100 mM imidazole; co-eluting proteins resolved on 12% SDS-PAGE (Coomassie) and identified by MALDI-TOF).

binding, binds:
B1, B2, B3, B4, B5, B6, B7, B8, B9, B10, B11, B12, B13
